Experimental data as given in US20250154171A1, “RAS INHIBITORS” (Revolution Medicines, Inc., priority 2023, published 2025).
Some results were stated once for a whole list of compounds, not compound by compound.

By UniProt entry, the sequences of proteins in these tests, tags left out. Where a name states a change or a piece, a line headed by the entry shows the natural chain unless it says otherwise. Residues count along the entry.
UniProt P01116, 1-188 isoform P01116-2 G12V: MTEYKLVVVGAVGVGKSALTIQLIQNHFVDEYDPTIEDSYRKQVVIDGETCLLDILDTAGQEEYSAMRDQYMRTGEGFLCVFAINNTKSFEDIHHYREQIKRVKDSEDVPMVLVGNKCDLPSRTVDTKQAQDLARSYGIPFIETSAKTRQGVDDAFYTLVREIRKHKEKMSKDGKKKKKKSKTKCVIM
UniProt P01116, 1-188 isoform P01116-2 G12A: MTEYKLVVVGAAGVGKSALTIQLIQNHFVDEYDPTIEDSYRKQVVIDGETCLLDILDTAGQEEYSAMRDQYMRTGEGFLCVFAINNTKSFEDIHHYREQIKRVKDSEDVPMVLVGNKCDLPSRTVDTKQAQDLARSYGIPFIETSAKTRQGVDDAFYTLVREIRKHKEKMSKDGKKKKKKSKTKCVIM
UniProt P62937, whole entry: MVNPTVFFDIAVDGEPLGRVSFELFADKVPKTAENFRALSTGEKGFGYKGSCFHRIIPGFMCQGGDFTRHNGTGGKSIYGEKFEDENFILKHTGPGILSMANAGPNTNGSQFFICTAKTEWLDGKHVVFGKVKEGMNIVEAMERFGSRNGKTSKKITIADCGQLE

What was measured:
Capan-1 (K-Ras G12V) = assay: CellTiter-Glo cell viability assay, Capan-1; assay type: cell-based, human; details: 5-day treatment, Capan-1 and/or NCI-H2009 versus A375
K-RasG12V = K-RasG12V (Homo sapiens, UniProt P01116+P62937, G12V); assay: Disruption of BRAF RBD interaction with K-Ras (TR-FRET / MOA assay), K-RasG12V; assay type: biochemical; details: TR-FRET with cyclophilin A and GST-BRAF RBD, read-out: IC50 with respect to K-RasG12V (disruption of BRAF RBD interaction)
K-RasG12A = K-RasG12A (Homo sapiens, UniProt P01116+P62937, G12A); assay: Disruption of BRAF RBD interaction with K-Ras (TR-FRET / MOA assay), K-RasG12A; assay type: biochemical; details: TR-FRET with cyclophilin A and GST-BRAF RBD, read-out: IC50 with respect to K-RasG12A (disruption of BRAF RBD interaction)

Row | Structure (SMILES) | IC50 (K-RasG12V) [nM] | IC50 (K-RasG12A) [nM] | decrease in cell viability with respect to Capan-1 and/or NCI-H2009 versus wild-type KRAS (A375) (Capan-1 (K-Ras G12V))
1 | CCn1c(-c2cc(N3CCN(C4CC4)CC3)cnc2[C@H](C)OC)c2c3cc(ccc31)-c1coc(n1)C[C@H](NC(=O)[C@H](C(C)C)N(C)C(=O)N1CCC[C@H]1Cc1cc(F)cc3ncccc13)C(=O)N1CCC[C@H](N1)C(=O)OCC(C)(C)C2 (atropisomer, axis not shown) [Example A1098] | < 1000 | < 1000 | greater decrease in cell viability
2 | CO[C@@H](C)c1ncccc1-c1c2c3cc(ccc3n1C1CN(C3CC3)C1)-c1csc(n1)[C@@H](N1CC3(CCCN3)C1)[C@H](NC(=O)[C@@H]1[C@@H](C)[C@H]1c1ccncn1)C(=O)N1CCC[C@H](N1)C(=O)OCC(C)(C)C2 (atropisomer, axis not shown) [Example A1099] | < 1000 | < 1000 | greater decrease in cell viability
3 | CO[C@@H](C)c1ncccc1-c1c2c3cc(ccc3n1C1CN(C3CC3)C1)-c1csc(n1)[C@@H](N1CC3(CCCN3)C1)[C@H](NC(=O)[C@H]1[C@H](C)[C@@H]1C)C(=O)N1CCC[C@H](N1)C(=O)OCC(C)(C)C2 (atropisomer, axis not shown) [Example A1100] | < 1000 | < 1000 | greater decrease in cell viability
4 | CO[C@@H](C)c1ncccc1-c1c2c3cc(ccc3n1C1CN(C3CC3)C1)-c1coc(n1)[C@@H](N1CCC(c3ccncc3)CC1)[C@H](NC(=O)[C@@H]1[C@@H](C)[C@H]1c1ccncn1)C(=O)N1CCC[C@H](N1)C(=O)OCC(C)(C)C2 (atropisomer, axis not shown) [Example A1101] | < 1000 | < 1000 | greater decrease in cell viability
5 | CO[C@@H](C)c1ncccc1-c1c2c3cc(ccc3n1C1CN(C3CC3)C1)-c1coc(n1)[C@@H](N1CCC(c3ccncc3)CC1)[C@H](NC(=O)[C@H]1[C@H](C)[C@@H]1C)C(=O)N1CCC[C@H](N1)C(=O)OCC(C)(C)C2 (atropisomer, axis not shown) [Example A1102] | < 1000 | < 1000 | greater decrease in cell viability
6 | CO[C@@H](C)c1ncccc1-c1c2c3cc(ccc3n1C1CN(C3CC3)C1)-c1csc(n1)[C@@H](N1CC3(CN(C)C3)C1)[C@H](NC(=O)[C@@H]1[C@@H](C)[C@H]1c1ccncn1)C(=O)N1CCC[C@H](N1)C(=O)OCC(C)(C)C2 (atropisomer, axis not shown) [Example A1103] | < 1000 | < 1000 | greater decrease in cell viability
7 | CO[C@@H](C)c1ncccc1-c1c2c3cc(ccc3n1C1CN(C3CC3)C1)-c1coc(n1)[C@@H](N1CCN(C)CC1)[C@H](NC(=O)[C@@H]1[C@@H](C)[C@H]1c1ccncn1)C(=O)N1CCC[C@H](N1)C(=O)OCC(C)(C)C2 (atropisomer, axis not shown) [Example A1104] | < 1000 | < 1000 | greater decrease in cell viability
8 | CO[C@@H](C)c1ncc(N2CCN(C3CC3)CC2)cc1-c1c2c3cc(ccc3n1CCOC1CCOCC1)-c1coc(n1)[C@@H](N1CC[C@@H](F)C1)[C@H](NC(=O)[C@H]1[C@H](C)[C@@H]1C)C(=O)N1CCC[C@H](N1)C(=O)OCC(C)(C)C2 (atropisomer, axis not shown) [Example A1106] | < 1000 | < 1000 | greater decrease in cell viability
9 | CO[C@@H](C)c1ncc(N2CCN(C3CC3)CC2)cc1-c1c2c3cc(ccc3n1CCOC1CCOCC1)-c1coc(n1)[C@@H](N1CC[C@H](F)C1)[C@H](NC(=O)[C@H]1[C@H](C)[C@@H]1C)C(=O)N1CCC[C@H](N1)C(=O)OCC(C)(C)C2 (atropisomer, axis not shown) [Example A1107] | < 1000 | < 1000 | greater decrease in cell viability

Continued, in another order:

Row | IC50 (K-RasG12V) [nM] | IC50 (K-RasG12A) [nM] | Structure (SMILES) | decrease in cell viability with respect to Capan-1 and/or NCI-H2009 versus wild-type KRAS (A375) (Capan-1 (K-Ras G12V))
10 | < 1000 | < 1000 | CO[C@@H](C)c1ncc(N2CCN(C3CC3)CC2)cc1-c1c2c3cc(ccc3n1CCOC1CCOCC1)-c1coc(n1)[C@@H](N1CC[C@@H](F)C1)[C@H](NC(=O)[C@@H]1[C@@H](C)[C@H]1c1ccncn1)C(=O)N1CCC[C@H](N1)C(=O)OCC(C)(C)C2 (atropisomer, axis not shown) [Example A1108] | greater decrease in cell viability
11 | < 1000 | < 1000 | CO[C@@H](C)c1ncc(N2CCN(C3CC3)CC2)cc1-c1c2c3cc(ccc3n1CCOC1CCOCC1)-c1coc(n1)[C@@H](N1CC[C@H](F)C1)[C@H](NC(=O)[C@@H]1[C@@H](C)[C@H]1c1ccncn1)C(=O)N1CCC[C@H](N1)C(=O)OCC(C)(C)C2 (atropisomer, axis not shown) [Example A1109] | greater decrease in cell viability
12 | < 1000 | < 1000 | CO[C@@H](C)c1ncccc1-c1c2c3cc(ccc3n1C1CN(C3CC3)C1)-c1csc(n1)[C@@H](OC1CCCCC1)[C@H](NC(=O)[C@@H]1[C@@H](C)[C@H]1c1ccncn1)C(=O)N1CCC[C@H](N1)C(=O)OCC(C)(C)C2 (atropisomer, axis not shown) [Example A1110] | greater decrease in cell viability
13 | < 1000 | < 1000 | CO[C@@H](C)c1ncccc1-c1c2c3cc(ccc3n1C1CN(C3CC3)C1)-c1csc(n1)[C@@H](OC1CCCCC1)[C@H](NC(=O)[C@H]1[C@H](C)[C@@H]1C)C(=O)N1CCC[C@H](N1)C(=O)OCC(C)(C)C2 (atropisomer, axis not shown) [Example A1111] | greater decrease in cell viability
14 | < 1000 | < 1000 | CO[C@@H](C)c1ncccc1-c1c2c3cc(ccc3n1C1CN(C3CC3)C1)-c1csc(n1)[C@@H](N1CC3(CN(C(C)=O)C3)C1)[C@H](NC(=O)[C@@H]1[C@@H](C)[C@H]1c1ccncn1)C(=O)N1CCC[C@H](N1)C(=O)OCC(C)(C)C2 (atropisomer, axis not shown) [Example A1112] | greater decrease in cell viability
15 | < 1000 | < 1000 | CO[C@@H](C)c1ncccc1-c1c2c3cc(ccc3n1C1CN(C3CC3)C1)-c1csc(n1)[C@@H](N1CC3(CN(C(C)=O)C3)C1)[C@H](NC(=O)[C@H]1[C@H](C)[C@@H]1C)C(=O)N1CCC[C@H](N1)C(=O)OCC(C)(C)C2 (atropisomer, axis not shown) [Example A1113] | greater decrease in cell viability
16 | < 1000 | < 1000 | CO[C@@H](C)c1ncccc1-c1c2c3cc(ccc3n1CCOC1CCOCC1)-c1coc(n1)[C@@H](N1CC[C@@H](F)C1)[C@H](NC(=O)[C@@H]1[C@@H](C)[C@H]1c1ccncn1)C(=O)N1CCC[C@H](N1)C(=O)OCC(C)(C)C2 (atropisomer, axis not shown) [Example A1115] | greater decrease in cell viability
